From PMC10816821
Results are given in words; binding and its absence hold for the method and conditions named. Binding seen in cells or lysates may run through a third protein. Binding calls can cover weak binding; strength is not graded here.

Molecular target: ASC (pig (endogenous in PAMs))
Test: co-IP; PAMs lysed in RIPA buffer, precleared with protein A/G-agarose, primary antibody overnight at 4 °C, SDS-PAGE and blot; cells untreated, stimulated with APP, or pretreated with naringin (NAR) before APP; the precipitating antibody is not named

B1: Caspase-1 (protein, UniProt Q9N2I1 1-404)
chain: MADKVLKEKRRLFVRSVAMGTINGLLDELLETRVLNQEEVEIVRGENATVMDKARALIDSVIRKGPQACQICINHICGDDPHLAGVLELSTGSQSGKCLTVQESQAVVPPFPAPQTVQDNPVKPASSEPRGSLKLCPPDIAQRLWKEKSAEIYPIMGKSIRTRLALIICNTEFENLPRRDGADVDIRDMKILLEDLGYSVDVRENLTASDMAIELKAFAARPEHKSSDSTFLVLMSHGIQAGICGKKYSEEVPDVLEVNTVFQILNTLNCPSLKDKPKVIIIQACRGEKQGVVWIKDSVGPSGNSSLLAAEDFEYDAIKKAHIEKDFIAFCSSTPDNVSWRHPLLGSLFIIKLIKILQEHAWSCGLEEIFRKVRFSFELADGRAQMPTAERVTLTRSFYLFPGH
binding: binds
